The results in this text go back to article PMC4330366.

Amino acid sequences for entries named in this document (tags omitted).
UniProt P53115: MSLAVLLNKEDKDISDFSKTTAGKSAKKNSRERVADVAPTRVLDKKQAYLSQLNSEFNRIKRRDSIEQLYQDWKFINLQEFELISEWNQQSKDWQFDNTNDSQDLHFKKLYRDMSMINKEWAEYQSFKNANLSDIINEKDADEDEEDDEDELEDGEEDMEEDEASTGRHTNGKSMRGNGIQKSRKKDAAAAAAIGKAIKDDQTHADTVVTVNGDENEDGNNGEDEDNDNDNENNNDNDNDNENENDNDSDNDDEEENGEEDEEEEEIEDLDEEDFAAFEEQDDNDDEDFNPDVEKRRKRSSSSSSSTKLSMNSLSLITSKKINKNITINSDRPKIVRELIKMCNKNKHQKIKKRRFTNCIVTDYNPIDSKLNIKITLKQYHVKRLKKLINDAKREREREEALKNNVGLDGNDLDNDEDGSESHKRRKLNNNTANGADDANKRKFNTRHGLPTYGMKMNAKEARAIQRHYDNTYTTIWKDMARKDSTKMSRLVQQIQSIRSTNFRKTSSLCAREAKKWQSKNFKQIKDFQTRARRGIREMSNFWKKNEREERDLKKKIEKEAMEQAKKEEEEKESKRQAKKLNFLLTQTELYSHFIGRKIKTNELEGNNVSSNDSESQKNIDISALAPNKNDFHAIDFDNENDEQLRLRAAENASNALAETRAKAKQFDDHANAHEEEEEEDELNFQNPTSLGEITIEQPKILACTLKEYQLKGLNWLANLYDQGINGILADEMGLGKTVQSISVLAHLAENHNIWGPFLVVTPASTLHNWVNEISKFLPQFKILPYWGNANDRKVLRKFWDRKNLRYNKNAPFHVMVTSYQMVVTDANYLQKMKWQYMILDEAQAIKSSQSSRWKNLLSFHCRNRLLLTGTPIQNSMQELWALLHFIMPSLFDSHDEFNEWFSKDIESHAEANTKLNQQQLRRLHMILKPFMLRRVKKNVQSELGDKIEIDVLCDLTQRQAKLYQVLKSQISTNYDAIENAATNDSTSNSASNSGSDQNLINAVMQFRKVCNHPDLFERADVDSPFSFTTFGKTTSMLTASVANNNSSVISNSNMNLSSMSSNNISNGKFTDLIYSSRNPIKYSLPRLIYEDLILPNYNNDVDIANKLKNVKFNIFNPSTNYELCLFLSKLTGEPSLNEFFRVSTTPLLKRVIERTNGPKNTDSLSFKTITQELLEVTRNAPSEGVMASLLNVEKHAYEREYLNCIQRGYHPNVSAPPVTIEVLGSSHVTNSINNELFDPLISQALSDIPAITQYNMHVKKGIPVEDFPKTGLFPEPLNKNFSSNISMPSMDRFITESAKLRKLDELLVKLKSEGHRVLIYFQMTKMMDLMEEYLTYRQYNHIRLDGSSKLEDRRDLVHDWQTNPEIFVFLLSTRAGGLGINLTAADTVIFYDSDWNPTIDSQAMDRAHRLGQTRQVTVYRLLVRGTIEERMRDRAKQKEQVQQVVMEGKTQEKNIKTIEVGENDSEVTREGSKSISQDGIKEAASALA

These are yes or no findings as the source states them, for the method shown. In cells and extracts the contact can be indirect. Some entries that bind do so weakly or less than the wild type.

The assay addresses Ino80-myc (INO80-9MYC) (S. cerevisiae (endogenous locus, W303 background)) (UniProt P53115). The assay can be described thus: co-IP; yeast whole cell lysates (bead beating; 50-mM HEPES-KOH pH 7.5, 100-mM NaCl, 1-mM EDTA, 0.25% Nonidet-P40, 10% glycerol); Ino80-myc precipitated with anti-Myc 9E10.2 and Protein A-Sepharose, 4°C; washes up to 250-mM NaCl; blot probed with anti-Lys20.

B1: lys20-cat (lys20-E155A) (enzyme, UniProt P48570 1-428)
chain: MTAAKPNPYAAKPGDYLSNVNNFQLIDSTLREGEQFANAFFDTEKKIEIARALDDFGVDYIELTSPVASEQSRKDCEAICKLGLKAKILTHIRCHMDDAKVAVETGVDGVDVVIGTSKFLRQYSHGKDMNYIAKSAVEVIEFVKSKGIEIRFSSADSFRSDLVDLLNIYKTVDKIGVNRVGIADTVGCANPRQVYELIRTLKSVVSCDIECHFHNDTGCAIANAYTALEGGARLIDVSVLGIGERNGITPLGGLMARMIVAAPDYVKSKYKLHKIRDIENLVADAVEVNIPFNNPITGFCAFTHKAGIHAKAILANPSTYEILDPHDFGMKRYIHFANRLTGWNAIKARVDQLNLNLTDDQIKEVTAKIKKLGDVRSLNIDDVDSIIKNFHAEVSTPQVLSAKKNKKNDSDVPELATIPAAKRTKPSA
Turning to B1, the binding result is “binds”.

B2: lys20-moon (lys20-V399-I418Δ) (enzyme, UniProt P48570)
chain: MTAAKPNPYAAKPGDYLSNVNNFQLIDSTLREGEQFANAFFDTEKKIEIARALDDFGVDYIELTSPVASEQSRKDCEAICKLGLKAKILTHIRCHMDDAKVAVETGVDGVDVVIGTSKFLRQYSHGKDMNYIAKSAVEVIEFVKSKGIEIRFSSEDSFRSDLVDLLNIYKTVDKIGVNRVGIADTVGCANPRQVYELIRTLKSVVSCDIECHFHNDTGCAIANAYTALEGGARLIDVSVLGIGERNGITPLGGLMARMIVAAPDYVKSKYKLHKIRDIENLVADAVEVNIPFNNPITGFCAFTHKAGIHAKAILANPSTYEILDPHDFGMKRYIHFANRLTGWNAIKARVDQLNLNLTDDQIKEVTAKIKKLGDVRSLNIDDVDSIIKNFHAEVSTPQPAAKRTKPSA
Take B2: the binding result is reported as “binds”.
